Experimental data as given in PubChem BioAssay AID256 (DTP/NCI, 2004).
The list does not hold the whole screen: it is rich in T/C values a quarter to a half above the control, in often repeated tests (any T/C) and in doses without a T/C. Further doses and runs are listed elsewhere. T/C: endpoint of the treated group in % of that of the vehicle group. Some entries give survivors of the animals treated and no T/C: the source holds a T/C of zero for them, seemingly a mark for toxic or unscored doses. Some doses without a T/C left all or most animals alive at the check, yet need not have been tolerated: the source hardly ever lists a survival T/C far under the control, and the zero likely stands for such cases as well. Counts of survivors are from the toxicity check (mostly the fifth day) where no day follows; animals may have died later. Schedule codes are those of the source, read here as Q, the interval in days (D) or hours (H), X, the number of doses. Some structures stand for samples that the source files as different forms (salt, stereo form or complex); doses refer to the form tested. Some doses were run more than once; the results are listed from low to high. For survival time, this PubChem deposit counts one and a half times the control or more as active, and values a quarter to a half above the control carry no call in these data; other NCI protocols may use other cut-offs. Some T/C values are followed by the survivors on the day toxicity was checked, most often the fifth; without a count, all were alive then. Signs of the kind (2×) give the number of equal values in this list.

System: CD2F1 mice, L1210 leukemia ip, survival T/C
Test: NCI In Vivo Anticancer Drug Screen. Data for tumor model L1210 Leukemia (intraperitoneal) in CD2F1 (CDF1) mice
Details: higher T/C = longer survival
Procedure, shortened: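 Vehicle-treated tumor-bearing mice served as controls (C) for compound-treated mice (T). Reported figure is T divided by C.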

[1] = T/C endpoint: mean survival time, dose: 75.0 mg/kg/injection, schedule: Q01DX009 (ip), vehicle: alkali diluted with saline
[2] = T/C endpoint: median survival time, dose: 1000.0 mg/kg/injection, schedule: Q04DX003 (ip), vehicle: water

NC(C/[N+]([O-])=N/O)C(=O)O (stereo not drawn)
T/C (T/C endpoint: mean survival time, dose: 16.0 mg/kg/injection, schedule: Q01DX009 (ip), vehicle: saline): 125 % of control
T/C (T/C endpoint: mean survival time, dose: 18.75 mg/kg/injection, schedule: Q01DX009 (ip), vehicle: alkali diluted with saline): 135 % of control
T/C (T/C endpoint: mean survival time, dose: 29.6 mg/kg/injection, schedule: Q01DX010 (ip), vehicle: alkali diluted with saline): 142 % of control
T/C (T/C endpoint: mean survival time, dose: 32.0 mg/kg/injection, schedule: Q03HX024 (ip), vehicle: saline): 130 % of control
T/C (T/C endpoint: mean survival time, dose: 37.5 mg/kg/injection, schedule: Q01DX009 (ip), vehicle: alkali diluted with saline): 134 % of control
T/C (T/C endpoint: mean survival time, dose: 44.4 mg/kg/injection, schedule: Q01DX010 (ip), vehicle: alkali diluted with saline): 144 % of control
T/C (T/C endpoint: mean survival time, dose: 50.0 mg/kg/injection, schedule: Q04DX003 (ip), vehicle: alkali diluted with saline): 101, 106 (2×), 116, 128 % of control
T/C (T/C endpoint: mean survival time, dose: 60.0 mg/kg/injection, schedule: Q01DX005 (ip), vehicle: alkali diluted with saline): 129 % of control
T/C (T/C endpoint: mean survival time, dose: 64.0 mg/kg/injection, schedule: Q01DX009 (ip), vehicle: saline): 129 % of control
T/C (T/C endpoint: mean survival time, dose: 64.0 mg/kg/injection, schedule: Q03HX024 (ip), vehicle: saline): 144 % of control
T/C (T/C endpoint: mean survival time, dose: 66.7 mg/kg/injection, schedule: Q01DX010 (ip), vehicle: alkali diluted with saline): 149 % of control
T/C [1]: 125 [7 of 8 alive] and 129 % of control
survivor count [1]: 8 of 8
T/C (T/C endpoint: mean survival time, dose: 80.0 mg/kg/injection, schedule: Q01DX009 (ip), vehicle: alkali diluted with saline): 130 % of control
T/C (T/C endpoint: mean survival time, dose: 100.0 mg/kg/injection, schedule: Q01DX010 (ip), vehicle: alkali diluted with saline): 126 % of control
T/C (T/C endpoint: mean survival time, dose: 100.0 mg/kg/injection, schedule: Q04DX003 (ip), vehicle: alkali diluted with saline): 108, 112, 124, 132, 135, 136 % of control
T/C (T/C endpoint: mean survival time, dose: 120.0 mg/kg/injection, schedule: Q01DX005 (ip), vehicle: alkali diluted with saline): 145 % of control
T/C (T/C endpoint: mean survival time, dose: 128.0 mg/kg/injection, schedule: Q03HX008 (ip), vehicle: saline): 131 % of control [9 of 10 alive]
T/C (T/C endpoint: mean survival time, dose: 128.0 mg/kg/injection, schedule: Q03HX016 (ip), vehicle: saline): 138 % of control
T/C (T/C endpoint: mean survival time, dose: 128.0 mg/kg/injection, schedule: Q03HX024 (ip), vehicle: saline): 130 % of control
T/C (T/C endpoint: mean survival time, dose: 128.0 mg/kg/injection, schedule: Q04DX003 (ip), vehicle: saline): 131 % of control
survivor count (T/C endpoint: mean survival time, dose: 150.0 mg/kg/injection, schedule: Q01DX009 (ip), vehicle: alkali diluted with saline): 7 of 8 and 8 of 8
T/C (T/C endpoint: mean survival time, dose: 200.0 mg/kg/injection, schedule: Q04DX003 (ip), vehicle: alkali diluted with saline): 120, 132, 144 [7 of 8 alive], 153 [7 of 8 alive], 158, 160 % of control
T/C (T/C endpoint: mean survival time, dose: 225.0 mg/kg/injection, schedule: Q04DX003 (ip), vehicle: alkali diluted with saline): 144 % of control
survivor count (T/C endpoint: mean survival time, dose: 256.0 mg/kg/injection, schedule: Q01DX009 (ip), vehicle: saline): 9 of 10
survivor count (T/C endpoint: mean survival time, dose: 256.0 mg/kg/injection, schedule: Q01DX009 (oral), vehicle: saline): 10 of 10
survivor count (T/C endpoint: mean survival time, dose: 256.0 mg/kg/injection, schedule: Q01DX009 (sc), vehicle: saline): 10 of 10
survivor count (T/C endpoint: mean survival time, dose: 256.0 mg/kg/injection, schedule: Q03HX008 (ip), vehicle: saline): 6 of 10
survivor count (T/C endpoint: mean survival time, dose: 256.0 mg/kg/injection, schedule: Q03HX016 (ip), vehicle: saline): 4 of 10
survivor count (T/C endpoint: mean survival time, dose: 256.0 mg/kg/injection, schedule: Q03HX024 (ip), vehicle: saline): 6 of 10
T/C (T/C endpoint: mean survival time, dose: 256.0 mg/kg/injection, schedule: Q08DX002 (ip), vehicle: saline): 131 % of control
T/C (T/C endpoint: mean survival time, dose: 400.0 mg/kg/injection, schedule: Q04DX003 (ip), vehicle: alkali diluted with saline): 116, 151, 167, 182, 188, 196 % of control
T/C (T/C endpoint: mean survival time, dose: 512.0 mg/kg/injection, schedule: Q01DX001 (ip), vehicle: saline): 129 % of control
survivor count (T/C endpoint: mean survival time, dose: 512.0 mg/kg/injection, schedule: Q01DX009 (ip), vehicle: saline): 0 of 10
survivor count (T/C endpoint: mean survival time, dose: 512.0 mg/kg/injection, schedule: Q01DX009 (oral), vehicle: saline): 6 of 10
survivor count (T/C endpoint: mean survival time, dose: 512.0 mg/kg/injection, schedule: Q01DX009 (sc), vehicle: saline): 5 of 10
T/C (T/C endpoint: mean survival time, dose: 512.0 mg/kg/injection, schedule: Q04DX003 (oral), vehicle: saline): 137 % of control [9 of 10 alive]
T/C (T/C endpoint: mean survival time, dose: 512.0 mg/kg/injection, schedule: Q08DX002 (ip), vehicle: saline): 143 % of control
T/C (T/C endpoint: mean survival time, dose: 800.0 mg/kg/injection, schedule: Q04DX003 (ip), vehicle: alkali diluted with saline): 113, 134, 181, 235 % of control [5 of 6 alive]
T/C (T/C endpoint: mean survival time, dose: 1024.0 mg/kg/injection, schedule: Q01DX001 (ip), vehicle: saline): 129 % of control
survivor count (T/C endpoint: mean survival time, dose: 1024.0 mg/kg/injection, schedule: Q01DX009 (oral), vehicle: saline): 0 of 10
survivor count (T/C endpoint: mean survival time, dose: 2048.0 mg/kg/injection, schedule: Q01DX001 (ip), vehicle: saline): 0 of 10
survivor count (T/C endpoint: mean survival time, dose: 2048.0 mg/kg/injection, schedule: Q01DX009 (oral), vehicle: saline): 0 of 10
survivor count (T/C endpoint: mean survival time, dose: 2048.0 mg/kg/injection, schedule: Q04DX003 (ip), vehicle: saline): 0 of 10
survivor count (T/C endpoint: mean survival time, dose: 2048.0 mg/kg/injection, schedule: Q04DX003 (oral), vehicle: saline): 2 of 10
survivor count (T/C endpoint: mean survival time, dose: 2048.0 mg/kg/injection, schedule: Q04DX003 (sc), vehicle: saline): 2 of 10
survivor count (T/C endpoint: mean survival time, dose: 2048.0 mg/kg/injection, schedule: Q08DX002 (ip), vehicle: saline): 0 of 10
T/C (T/C endpoint: median survival time, dose: 19.4 mg/kg/injection, schedule: Q01DX009 (ip), vehicle: alkali diluted with saline): 129 % of control
T/C (T/C endpoint: median survival time, dose: 31.3 mg/kg/injection, schedule: Q01DX009 (ip), vehicle: water): 133 % of control
T/C (T/C endpoint: median survival time, dose: 32.4 mg/kg/injection, schedule: Q01DX009 (ip), vehicle: alkali diluted with saline): 134 % of control
T/C (T/C endpoint: median survival time, dose: 45.0 mg/kg/injection, schedule: Q01DX009 (ip), vehicle: alkali diluted with saline): 137 % of control
T/C (T/C endpoint: median survival time, dose: 54.0 mg/kg/injection, schedule: Q01DX009 (ip), vehicle: alkali diluted with saline): 136 % of control
T/C (T/C endpoint: median survival time, dose: 60.0 mg/kg/injection, schedule: Q01DX009 (ip), vehicle: alkali diluted with saline): 140 % of control
T/C (T/C endpoint: median survival time, dose: 62.5 mg/kg/injection, schedule: Q01DX009 (ip), vehicle: water): 133 % of control
T/C (T/C endpoint: median survival time, dose: 62.5 mg/kg/injection, schedule: Q04DX003 (ip), vehicle: water): 133 % of control
T/C (T/C endpoint: median survival time, dose: 75.0 mg/kg/injection, schedule: Q01DX009 (ip), vehicle: alkali diluted with saline): 145 % of control
T/C (T/C endpoint: median survival time, dose: 97.2 mg/kg/injection, schedule: Q04DX003 (ip), vehicle: alkali diluted with saline): 132 % of control
T/C (T/C endpoint: median survival time, dose: 100.0 mg/kg/injection, schedule: Q01DX009 (ip), vehicle: alkali diluted with saline): 129 % of control
survivor count (T/C endpoint: median survival time, dose: 125.0 mg/kg/injection, schedule: Q01DX009 (ip), vehicle: water): 10 of 10
T/C (T/C endpoint: median survival time, dose: 125.0 mg/kg/injection, schedule: Q04DX003 (ip), vehicle: water): 144 % of control
T/C (T/C endpoint: median survival time, dose: 150.0 mg/kg/injection, schedule: Q01DX009 (ip), vehicle: alkali diluted with saline): 134 % of control
survivor count (T/C endpoint: median survival time, dose: 250.0 mg/kg/injection, schedule: Q01DX009 (ip), vehicle: water): 8 of 10 and 9 of 10
survivor count (T/C endpoint: median survival time, dose: 500.0 mg/kg/injection, schedule: Q01DX009 (ip), vehicle: water): 3 of 10 and 7 of 10
T/C (T/C endpoint: median survival time, dose: 500.0 mg/kg/injection, schedule: Q04DX003 (ip), vehicle: water): 127 % of control
survivor count (T/C endpoint: median survival time, dose: 1000.0 mg/kg/injection, schedule: Q01DX009 (ip), vehicle: water): 0 of 10 and 3 of 10
T/C [2]: 133 % of control
survivor count [2]: 1 of 10

CCN(CCO)c1ccc(N)cc1C
survivor count (T/C endpoint: mean survival time, dose: 100.0 mg/kg/injection, schedule: Q04DX003 (ip), vehicle: saline): 0 of 6
survivor count (T/C endpoint: mean survival time, dose: 200.0 mg/kg/injection, schedule: Q04DX003 (ip), vehicle: saline): 0 of 6
survivor count (T/C endpoint: mean survival time, dose: 400.0 mg/kg/injection, schedule: Q04DX003 (ip), vehicle: saline): 0 of 6

C1=CC2CC1CC2[P+](c1ccccc1)(c1ccccc1)c1ccccc1 (stereo not drawn)
survivor count (T/C endpoint: mean survival time, dose: 100.0 mg/kg/injection, schedule: Q01DX001 (ip), vehicle: saline with Tween-80): 1 of 3
survivor count (T/C endpoint: mean survival time, dose: 200.0 mg/kg/injection, schedule: Q01DX001 (ip), vehicle: saline with Tween-80): 0 of 3
survivor count (T/C endpoint: mean survival time, dose: 400.0 mg/kg/injection, schedule: Q01DX001 (ip), vehicle: saline with Tween-80): 0 of 3
